From article PMC4219826
These are yes or no findings as the source states them, for the method shown. In cells and extracts the contact can be indirect. Some entries that bind do so weakly or less than the wild type.

Chains of the proteins cited; added tags and fusions are not shown.
UniProt Q833J1: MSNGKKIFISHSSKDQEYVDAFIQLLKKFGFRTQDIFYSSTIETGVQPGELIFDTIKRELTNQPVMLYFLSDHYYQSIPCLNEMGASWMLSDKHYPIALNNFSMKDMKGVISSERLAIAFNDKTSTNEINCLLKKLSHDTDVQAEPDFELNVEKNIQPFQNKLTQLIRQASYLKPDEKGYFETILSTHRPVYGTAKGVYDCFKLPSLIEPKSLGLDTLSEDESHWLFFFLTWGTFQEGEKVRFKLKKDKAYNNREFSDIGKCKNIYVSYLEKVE
UniProt P22366: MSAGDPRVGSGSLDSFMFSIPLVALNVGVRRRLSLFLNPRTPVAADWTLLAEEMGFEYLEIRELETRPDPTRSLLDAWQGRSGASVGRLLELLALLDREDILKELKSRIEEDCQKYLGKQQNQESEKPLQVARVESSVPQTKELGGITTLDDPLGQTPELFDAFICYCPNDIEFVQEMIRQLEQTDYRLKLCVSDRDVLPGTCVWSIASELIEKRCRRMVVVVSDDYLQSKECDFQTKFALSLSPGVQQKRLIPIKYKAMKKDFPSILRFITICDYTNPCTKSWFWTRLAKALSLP

Target: MBP-TcpF fusion protein (TIR domain-containing protein in E. faecalis, TcpF) (Enterococcus faecalis (strain E99)) (UniProt Q833J1)
Test: co-IP; purified recombinant MBP, MBP-TcpF or MBP-TcpFm mixed with 1 mg RAW264.7 cell lysate overnight at 4°C; precleared with protein A Sepharose; precipitated with anti-MBP antibody and protein A Sepharose for 4 hours; beads washed three times in lysate buffer; immunoblot with MyD88-specific antibody; only the target purified

In the case of MyD88 (from UniProt P22366 1-296), the binding is reported as “binds”.
